Data from PubChem BioAssay AID624405 (Broad Institute, 2012).
Among all 1,900 compounds or so, about 250 (13%) were called active. Another 4% or so got no clear call; they are omitted.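 The calls were made as follows: active = fitted curve reaches 40% rescue activity at or below the top valid dose, in every test run; inconclusive = test runs disagree, some active and some inactive; inactive = every run misses the threshold or moves the wrong way.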 Only a part is listed here, and it is no random draw. Measured potencies and affinities stand elsewhere.

Assay: suppressors of statin myotoxicity in myotubes, dose response, cell-based, C2C12 myotubes, ATP luminescence, cherry pick (AID 624405);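 also: myotubes are challenged with simvastatin at 10 µM to lower ATP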
Conditions: C2C12 myotubes + simvastatin, 48 h, scaled: DMSO wells 0, geranylgeraniol wells 100; at 19.5 µM (top of the series) unless noted

Question: With `CCOC(=O)C1=C(N)c2ccccc2CC1C(C)C` (stereo not drawn) as the compound, how does the rescue activity (ATP increase) read?
Answer: The rescue activity (ATP increase) was inactive: 21.5%.

Question: For `N#Cc1ccc(C(=O)NCC(c2ccco2)N2CCCCC2)cc1` (stereo not drawn), which rescue activity (ATP increase) is on record?
Answer: The rescue activity (ATP increase) was inactive: 0.531%.

Question: Which rescue activity (ATP increase) does the source give for `Cc1ccc(N(C(=O)C2CCC(=O)N2)C2(C(=O)NC3CCCCC3)CCCCC2)cc1` (stereo not drawn) here?
Answer: Its rescue activity (ATP increase) is inactive: -11.3%.

Question: For `C[C@@H]1CN([C@@H](C)CO)C(=O)c2cc(NC(=O)Cc3ccccc3)ccc2O[C@@H](C)CCCCO[C@@H]1CN(C)S(=O)(=O)c1ccc(F)cc1`, which rescue activity (ATP increase) is on record?
Answer: The rescue activity (ATP increase) was inactive: -1.8%.

Question: For `COc1ccc(S(=O)(=O)Nc2ccc3c(c2)CC(=O)N([C@H](C)CO)C[C@H](C)[C@H](CN(C)Cc2ccc(Cl)c(Cl)c2)O3)cc1`, which rescue activity (ATP increase) is on record?
Answer: The rescue activity (ATP increase) was inactive: 15.9%.

Question: Which rescue activity (ATP increase) does the source give for `C[C@@H]1CN([C@@H](C)CO)C(=O)c2cc(C#CC3CCCC3)cnc2O[C@H]1CN(C)C(=O)Nc1ccccc1` here?
Answer: The rescue activity (ATP increase) was inactive: 22.4%.

Question: With `C=CCOc1c(Br)cc(CNn2nnnc2N)cc1OC` as the compound, how does the rescue activity (ATP increase) read?
Answer: The rescue activity (ATP increase) was inactive: 29.5%.

Question: Which rescue activity (ATP increase) does the source give for `Cn1ncc(N=Cc2ccccc2O)c1C(=O)Nc1ccccc1` here?
Answer: Its rescue activity (ATP increase) is inactive: -12.8%.

Question: Which rescue activity (ATP increase) does the source give for `c1cncc(Oc2cccc(Oc3cccnc3)c2)c1` here?
Answer: Its rescue activity (ATP increase) is inactive: 13.7%.

Question: With `CS(=O)(=O)N(CC(=O)N/N=C/c1cccs1)c1cccc(Cl)c1Cl` as the compound, how does the rescue activity (ATP increase) read?
Answer: The rescue activity (ATP increase) was inactive: 16.8%.

Question: With `O=C(CSc1nc(-c2ccccc2)c(-c2ccccc2)o1)Nc1nncs1` as the compound, how does the rescue activity (ATP increase) read?
Answer: The rescue activity (ATP increase) was inactive: 5.06%.

Question: With `COc1cccc(S(=O)(=O)N(C)C[C@H]2OCc3ccccc3-c3c(n(C)c4ccccc34)C(=O)N([C@@H](C)CO)C[C@H]2C)c1` as the compound, how does the rescue activity (ATP increase) read?
Answer: The rescue activity (ATP increase) was inactive: 18%.

Question: With `C[C@@H]1CN([C@H](C)CO)C(=O)Cc2cc(NC(=O)C3CCCCC3)ccc2O[C@H]1CN(C)Cc1ccc(-c2ccccc2)cc1` as the compound, how does the rescue activity (ATP increase) read?
Answer: Its rescue activity (ATP increase) is inactive: 34.9%.

Question: For `CCC(=O)Nc1c(C#N)c2nc3ccccc3nc2n1-c1ccccc1C`, which rescue activity (ATP increase) is on record?
Answer: Its rescue activity (ATP increase) is inactive: 18.3%.

Question: Which rescue activity (ATP increase) does the source give for `COc1ccc(NC(=O)Nc2ccc3c(c2)C(=O)N([C@@H](C)CO)C[C@@H](C)[C@H](CN(C)Cc2ccc(C(F)(F)F)cc2)OCCCC[C@H](C)O3)cc1` here?
Answer: The rescue activity (ATP increase) was inactive: -26%.

Question: With `Cc1cccc(C)c1NS(=O)(=O)c1ccc(F)cc1` as the compound, how does the rescue activity (ATP increase) read?
Answer: The rescue activity (ATP increase) was inactive: -2.51%.

Question: With `Cc1cccc(Nc2nnc(-c3ccc(C(=O)N4C[C@H]5C[C@H](C4)c4cccc(=O)n4C5)cc3)c3ccccc23)c1` as the compound, how does the rescue activity (ATP increase) read?
Answer: The rescue activity (ATP increase) was inactive: 8.28%.

Question: For `Cc1cc(C)n(C(=O)c2ccc(S(=O)(=O)NCC3CCCO3)cc2)n1` (stereo not drawn), which rescue activity (ATP increase) is on record?
Answer: The rescue activity (ATP increase) was inactive: 2.29%.

Question: For `Cc1ccc(C(=O)N2CCSCC2)cc1`, which rescue activity (ATP increase) is on record?
Answer: The rescue activity (ATP increase) was inactive: -3.87%.

Question: For `O=C(OCC(=O)N1CCOCC1)c1ccccc1SCC(=O)N1CCCC1`, which rescue activity (ATP increase) is on record?
Answer: The rescue activity (ATP increase) was inactive: -12.9%.

Question: For `CSc1cc(-c2ccc(Cl)cc2)c(C(=O)N2CCCC2)s1`, which rescue activity (ATP increase) is on record?
Answer: Its rescue activity (ATP increase) is inactive: 17.3%.

Question: With `O=C(COC(=O)C1CC2C=CC1C2)NCc1ccco1` (stereo not drawn) as the compound, how does the rescue activity (ATP increase) read?
Answer: Its rescue activity (ATP increase) is inactive: -23.6%.

Question: With `CC(C)(CSc1ncccn1)NS(=O)(=O)c1ccccc1` as the compound, how does the rescue activity (ATP increase) read?
Answer: Its rescue activity (ATP increase) is inactive: -8.32%.

Question: For `Cc1cc(Cl)c(S(=O)(=O)Nc2ccc3c(c2)OCO3)cc1OCC(N)=O`, which rescue activity (ATP increase) is on record?
Answer: The rescue activity (ATP increase) was inactive: 3.69%.

Question: For `O=c1cc(-c2ccncc2)oc2ccccc12`, which rescue activity (ATP increase) is on record?
Answer: Its rescue activity (ATP increase) is inactive: 24.2%.

Question: With `C[C@@H]1CN([C@H](C)CO)C(=O)c2cccc(NC(=O)Nc3ccc(F)cc3)c2O[C@H]1CN(C)Cc1ccccc1` as the compound, how does the rescue activity (ATP increase) read?
Answer: The rescue activity (ATP increase) was inactive: 1.81%.

Question: For `COc1cc(C(N)=O)ccc1OCc1ccccc1`, which rescue activity (ATP increase) is on record?
Answer: Its rescue activity (ATP increase) is inactive: 8.22%.

Question: Which rescue activity (ATP increase) does the source give for `C[C@@H]1CN([C@@H](C)CO)C(=O)Cc2cc(NC(=O)Cc3cn(C)c4ccccc34)ccc2O[C@H]1CN(C)Cc1ccc(C(F)(F)F)cc1` here?
Answer: The rescue activity (ATP increase) was inactive: 13.7%.

Question: With `N=c1n(-c2ccccc2)c(O)cc(=O)n1-c1ccccc1` as the compound, how does the rescue activity (ATP increase) read?
Answer: The rescue activity (ATP increase) was inactive: -17.2%.

Question: With `O=C(Nc1cccs1)NC1CCCC1` as the compound, how does the rescue activity (ATP increase) read?
Answer: The rescue activity (ATP increase) was inactive: 0.116%.

Question: Which rescue activity (ATP increase) does the source give for `C[C@H](CO)N1C[C@H](C)[C@H](CN(C)S(=O)(=O)c2cccs2)Oc2ccc(NC(=O)Cc3cn(C)c4ccccc34)cc2C1=O` here?
Answer: Its rescue activity (ATP increase) is inactive: -0.951%.

Question: With `C[C@H](CO)N1C[C@H](C)[C@@H](CN(C)C(=O)Nc2ccc(F)cc2)OCCCC[C@H](C)Oc2ccc(NC(=O)Cc3ccccc3)cc2C1=O` as the compound, how does the rescue activity (ATP increase) read?
Answer: The rescue activity (ATP increase) was inactive: 17.8%.

Question: With `C[C@@H]1CN([C@H](C)CO)C(=O)Cc2cc(NS(=O)(=O)c3ccc(F)cc3)ccc2O[C@@H]1CN(C)Cc1ccc(Cl)c(Cl)c1` as the compound, how does the rescue activity (ATP increase) read?
Answer: The rescue activity (ATP increase) was inactive: 22.2%.

Question: With `CCCCCn1c(N2CCC(C(N)=O)CC2)nc2c1c(=O)[nH]c(=O)n2C` as the compound, how does the rescue activity (ATP increase) read?
Answer: Its rescue activity (ATP increase) is inactive: 4.98%.

Question: For `C[C@@H]1CCCCO[C@H](CN(C)CC2CCCCC2)[C@@H](C)CN([C@H](C)CO)C(=O)c2cc(NS(=O)(=O)c3ccccc3)ccc2O1`, which rescue activity (ATP increase) is on record?
Answer: Its rescue activity (ATP increase) is inactive: -18.2% [at 21 µM].

Question: With `C[C@@H]1CN([C@@H](C)CO)C(=O)c2cc(NS(=O)(=O)c3ccc(Cl)cc3)ccc2O[C@@H](C)CCCCO[C@@H]1CN(C)C(=O)Nc1cccc2ccccc12` as the compound, how does the rescue activity (ATP increase) read?
Answer: The rescue activity (ATP increase) was inactive: 33.7%.

Question: Which rescue activity (ATP increase) does the source give for `C[C@@H]1CN([C@H](C)CO)C(=O)Cc2cc(NS(=O)(=O)c3cn(C)cn3)ccc2O[C@H]1CN(C)Cc1ccc(Cl)c(Cl)c1` here?
Answer: The rescue activity (ATP increase) was inactive: 12.2% [at 21 µM].

Question: Which rescue activity (ATP increase) does the source give for `CCOC(=O)c1cc(=O)n(Cc2ccccc2C)c2ccccc12` here?
Answer: The rescue activity (ATP increase) was inactive: 20.2%.

Question: For `Nn1c(SCC(=O)Nc2ccc(F)cc2F)nnc1-c1cccnc1`, which rescue activity (ATP increase) is on record?
Answer: Its rescue activity (ATP increase) is inactive: -18.1%.

Question: Which rescue activity (ATP increase) does the source give for `C[C@@H](NC(=O)C[C@@H]1CC[C@@H]2[C@H](COC[C@H](O)CN2Cc2ccc(C(F)(F)F)cc2)O1)c1ccccc1` here?
Answer: The rescue activity (ATP increase) was inactive: 32%.

Question: With `COc1ccc2[nH]cc(C(=O)CNc3nc(C)cs3)c2c1` as the compound, how does the rescue activity (ATP increase) read?
Answer: The rescue activity (ATP increase) was inactive: 13.8%.

Question: With `CCOc1cccc(CNc2ccc(O)cc2)c1OCc1ccccc1Cl` as the compound, how does the rescue activity (ATP increase) read?
Answer: The rescue activity (ATP increase) was inactive: 48%.

Question: With `OCC[C@H]1C[C@@H](O)[C@H](O)[C@@]2(Cc3ccccc3O2)O1` as the compound, how does the rescue activity (ATP increase) read?
Answer: The rescue activity (ATP increase) was inactive: -43.1%.

Question: With `NC(=O)c1ncc(C(F)(F)F)cc1Oc1ccc(F)cc1` as the compound, how does the rescue activity (ATP increase) read?
Answer: The rescue activity (ATP increase) was inactive: -11.2%.

Question: With `Cc1ccc(S(=O)(=O)N(C)Cc2ccc(-c3nnco3)cc2)cc1` as the compound, how does the rescue activity (ATP increase) read?
Answer: Its rescue activity (ATP increase) is inactive: -11.4%.

Question: Which rescue activity (ATP increase) does the source give for `Cc1ccc(NS(=O)(=O)c2ccc(-n3cccn3)cc2)c(C)c1` here?
Answer: Its rescue activity (ATP increase) is inactive: 39.9%.

Question: Which rescue activity (ATP increase) does the source give for `COc1ccc(-n2c(SCC(=O)N3CCCCC3)nc(O)cc2=O)cc1` here?
Answer: The rescue activity (ATP increase) was inactive: -3.25%.

Question: Which rescue activity (ATP increase) does the source give for `COc1ccc(S(=O)(=O)Nc2ccc3c(c2)C(=O)N([C@@H](C)CO)C[C@H](C)[C@@H](CN(C)S(=O)(=O)c2cccs2)OCCCC[C@@H](C)O3)cc1` here?
Answer: Its rescue activity (ATP increase) is inactive: 11.9%.
